A short description of the experiment: qHTS Assay for Lipid Storage Modulators in Drosophila S3 Cells.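 For cell number change: cells counted by Cell Tracker Red CMTPX staining in the red channel.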 Conditions: BODIPY lipid droplet fluorescence, 18-24 h; for cell number change: measured here: cell count max response, cells fed with added oleic acid. A digest of the protocol: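 Drosophila S3 cells got compounds at several concentrations plus oleic acid (400 uM solution). Laser-scanning cytometry with 488 nm excitation read lipid droplets at 500-530 nm and cells at 575-640 nm. Percent activity was relative to 20 uM Triacsin C.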
On the technique in general: qHTS replaces the single test concentration by a dilution series.

Setting [1] is: measured here: lipid fluorescence (Fed channel) AC50, cells fed with added oleic acid.
[2] abbreviates: measured here: cell number channel AC50, cells fed with added oleic acid.

The other results are listed elsewhere or left out. These are further read-outs of the screen, such as a control signal, another cell line or another target. No call is given for them. The list favours compounds with an active or inconclusive main result. The note in brackets gives the kind of curve behind each potency; many fits are weak.

As usually defined, the AC50 is the concentration at which the activity in the assay is half-maximal. High values mean activity only at high concentration, low ones activity at low concentration. On to `COc1ccc(C2SCCN2S(=O)(=O)c2ccc(NC(C)=O)cc2)cc1OC` (stereo not given), for which the cell number change is 5.24%. Besides, the AC50 under setting [1] was 20.6 µM [rising, partial curve]. As to `CCN(CC)C(=O)Nc1ccc(Br)cc1`, the cell number change is -46.1%. The AC50 under setting [1] is 29.1 µM [falling, single point].

With `CSc1ccccc1NC(=O)CN(C)C(=O)CCc1c[nH]c2ccccc12`, the cell number change is -2.56%. Further, the half-maximal activity concentration (AC50) under setting [1] is 1.3 µM [falling, full curve]. As to `COc1cc(C(=S)N2CCOCC2)ccc1OC(=O)c1ccccc1`, the cell number change is -16.9%.

Regarding `COc1ccc(-c2cc(C(=O)O)[nH]n2)cc1OC`, the AC50 under setting [1] is 9.2 µM [falling, partial curve]. Regarding `CCc1nc2ccc(C(=O)NCCc3ccc(OC)cc3)cc2nc1CC`, the cell number change was -60.3%. The AC50 under setting [2] was 23.1 µM [falling, partial curve, poor fit].

Turning to `Cc1ccsc1/C=N/NC(=O)c1nnn(-c2nonc2N)c1C(C)C`, the cell number change was -32.2%. Under setting [2], the concentration at half-maximal activity (AC50) is 0.146 µM [falling, full curve, poor fit]. Turning to `CCC(C)NC(=O)c1ccccc1NC(=O)c1ccc(CSc2ccccc2)cc1` (stereo not given), the cell number change was -13.9%. Regarding `Cc1ccc(S(=O)(=O)N2CCOCC2)cc1C(=O)NCC1CCCO1` (stereo not given), the cell number change was found to be 10.6%. Under setting [1], the AC50 is 0.164 µM [rising, full curve, poor fit].

Take `Cc1ccc(S(=O)(=O)NCC(=O)N(CC(=O)NC(C)(C)C)Cc2ccc3c(c2)OCO3)cc1`: the cell number change was -0.84%. As for `O=C(/C=C/c1cccc([N+](=O)[O-])c1)c1ccc2c(c1)OCCO2`, the AC50 under setting [1] is 16.4 µM [falling, partial curve, poor fit]. For the molecule `COC(=O)c1nc(NC(=O)C(C)(C)C)n[nH]1`, the cell number change is -9.96%. Besides, the AC50 under setting [1] is 29.1 µM [falling, single point]. For `CN(C)c1ccc(NC(=O)c2ccc(COc3cccc(Cl)c3)o2)cc1`, the cell number change is 48.7%. The AC50 under setting [2] is 0.259 µM [rising, partial curve, poor fit]. `CC(C)C1Nc2c(C(=O)O)cccc2C(Nc2ccccc2C(=O)O)C1(C)C` (stereo not given): the cell number change was -31.4%. Under setting [2], the AC50 is 0.82 µM [falling, full curve]. Under setting [1], the half-maximal activity concentration (AC50) was 0.517 µM [falling, single point]. For `Cc1ccc(Nc2nnc(SCC(=O)NC3CCS(=O)(=O)C3)s2)c(C)c1` (stereo not given), the cell number change is -24.3%. Under setting [1], the AC50 was 6.51 µM [falling, single point]. Regarding `Cn1cnnc1SCc1ccc(C(=O)N=Nc2c(O)n(C)c3ccccc23)cc1`, the cell number change is 22.5%. Moreover, the concentration at half-maximal activity (AC50) under setting [1] is 0.411 µM [rising, full curve]. Regarding `Cc1cccc(-c2noc(CNS(=O)(=O)c3ccccc3)n2)c1`, the cell number change was 5.45%. The AC50 under setting [1] was 6.51 µM [rising, single point]. `CCOc1ccc(CN(C(=O)c2ccccn2)c2ccc(OC)c(Cl)c2)cc1`: the cell number change worked out at 1.9%. Besides, the concentration at half-maximal activity (AC50) under setting [1] is 29.1 µM [falling, single point].

Regarding `COc1ccc(NC(=O)CSc2nc(N)c(NC(=O)c3ccccc3F)c(=O)[nH]2)cc1`, the cell number change turned out to be 27.2%. For the same molecule, the AC50 under setting [1] is 0.164 µM [rising, full curve, poor fit]. In the case of `C=CCOc1ccc(/C=N/NC(=O)C(=O)Nc2ccccn2)cc1OC`, the AC50 under setting [1] is 29.1 µM [rising, single point].

In the case of `CCC(=O)Nc1nnc(S(=O)(=O)N(CC)c2ccc(OC)cc2)s1`, the cell number change was 1.42%. Regarding `CN(c1ccc(S(=O)(=O)N2CCOCC2)cn1)C1CCCCC1`, the cell number change came out at 31.2%. Besides, the AC50 under setting [2] was 0.82 µM [rising, full curve]. In addition, under setting [1], the AC50 is 7.31 µM [rising, partial curve]. In the case of `CC(=O)c1c(C)[nH]c(C(=O)COC(=O)c2cc(S(=O)(=O)N(C)c3ccccc3)ccc2Cl)c1C`, the cell number change worked out at 28.7%. Regarding `COc1cccc(NC(=O)CN(C)C(=O)CC(NC(=O)c2ccccc2Cl)c2ccccc2)c1` (stereo not given), the cell number change worked out at 9.12%. Moreover, the AC50 under setting [2] was 0.517 µM [falling, single point]. Regarding `O=C(Nc1cccc2ccccc12)NC1CCCc2ccccc21` (stereo not given), the cell number change was determined as 25.9%. Also, the AC50 under setting [2] is 0.651 µM [rising, full curve, poor fit]. Regarding `Cc1cc2nnc(SCC(=O)Nc3cc(S(=O)(=O)N4CCOCC4)ccc3Cl)n2c2ccccc12`, the cell number change was -7.11%. Also, the AC50 under setting [1] is 23.1 µM [falling, partial curve]. With `Cc1ccc(-c2cc(-c3nnc(SCC(=O)NC(C)C(C)C)n3N)c3ccccc3n2)cc1` (stereo not given), the cell number change was -0.446%. The AC50 under setting [1] was 6.51 µM [rising, partial curve, poor fit]. For the molecule `Oc1ccc(/C=N/N2CCN(C3c4ccccc4-c4ccccc43)CC2)cc1`, the cell number change is -35.6%. Moreover, the concentration at half-maximal activity (AC50) under setting [2] is 29.1 µM [falling, single point]. Further, under setting [1], the AC50 was 23.1 µM [falling, single point]. For `O=C(Nc1cccnc1)C1OCCc2ccccc21` (stereo not given), the cell number change was -44.1%. Also, under setting [2], the AC50 is 4.11 µM [falling, full curve]. Further, the AC50 under setting [1] was 3.66 µM [falling, full curve].

As for `O=C(c1ccc(Br)o1)N1CCN=C1SCc1cccnc1`, the cell number change was -1.2%. Regarding `Cc1ccc(NC(=S)c2nc3ccccc3[nH]2)cc1`, the cell number change is -15.4%. In addition, under setting [1], the AC50 is 23.1 µM [falling, partial curve]. As for `COc1ccccc1Nc1nc(C)cc(C)n1`, the cell number change was -1.06%. As to `CC(/C=C/c1ccco1)=N/NC(=O)c1ccccc1Cl`, the cell number change came out at 51%. Under setting [2], the half-maximal activity concentration (AC50) is 29.1 µM [rising, single point]. With `Cn1c(C(=O)N2CCN(c3nc4ccccc4s3)CC2)cc2sccc21`, the cell number change was -5.95%. Moreover, under setting [1], the AC50 is 9.2 µM [rising, partial curve]. For `COc1cc(C=O)ccc1OS(=O)(=O)c1ccc(NC(C)=O)cc1`, the cell number change was 32.5%. Besides, under setting [2], the AC50 was 0.082 µM [rising, full curve, poor fit]. Besides, under setting [1], the AC50 is 2.91 µM [rising, single point]. As to `CCOc1ccccc1NC(=O)c1ccccc1N(C)S(C)(=O)=O`, the cell number change stood at 9.94%. Turning to `CN(Cc1nc2ccccc2c(=O)[nH]1)C(=O)c1ccc(S(=O)(=O)N2CCCC2)cc1`, the cell number change is -15.3%. Moreover, the AC50 under setting [1] was 0.82 µM [falling, partial curve, poor fit].

Turning to `C=C(C)Cc1c(C)c(C#N)c2nc3ccccc3n2c1N1CCCCC1`, the cell number change was -67%. In addition, the AC50 under setting [2] was 29.1 µM [falling, single point]. Regarding `C=CCNC(=O)CN1c2cccc3cccc(c23)S1(=O)=O`, under setting [2], the AC50 is 0.0058 µM [rising, full curve, poor fit]. Turning to `O=C(N/N=C/c1c[nH]c2ccccc12)c1cccs1`, the cell number change was found to be 11.8%. Besides, the AC50 under setting [1] was 0.461 µM [rising, full curve, poor fit].

For the molecule `COc1ccc(/C=N/NC(=O)c2nonc2C)cc1`, the cell number change is -109%. Besides, the AC50 under setting [2] is 14.6 µM [falling, partial curve, poor fit]. Besides, under setting [1], the half-maximal activity concentration (AC50) was 18.4 µM [falling, partial curve]. For `Cc1ccc(-c2ccc(=O)n(Cc3cccc(Br)c3)n2)cc1`, the cell number change amounted to 9.93%. Moreover, the half-maximal activity concentration (AC50) under setting [2] is 6.51 µM [rising, single point].

On to `CCN=C(NCC)SC1CC(=O)N(c2ccc(F)cc2)C1=O` (stereo not given), for which the cell number change was -19.8%. The AC50 under setting [1] is 0.58 µM [rising, single point]. In the case of `Cc1cccc(Oc2nc3ccccn3c(=O)c2/C=C(\C#N)C(=O)NC2CCS(=O)(=O)C2)c1C` (stereo not given), the cell number change was -8.57%. In the case of `O=C(Nc1nc(-c2ccccc2)cs1)c1ccccc1F`, the cell number change is 1.66%. For the same molecule, under setting [1], the concentration at half-maximal activity (AC50) is 29.1 µM [falling, single point]. In the case of `C=C(CC)C(=O)c1ccc(OCC(=O)O)c(Cl)c1Cl`, the cell number change is -57.7%. In addition, the AC50 under setting [2] is 29.1 µM [falling, single point]. The AC50 under setting [1] is 18.4 µM [falling, partial curve]. As to `O=C(COc1ccccc1[N+](=O)[O-])Nc1ccc(CN2CCOCC2)cc1`, the AC50 was 6.51 µM [rising, single point] under setting [2] and 6.51 µM [rising, partial curve, poor fit] under setting [1]. For the molecule `CN1CCN(c2ccc(C(=O)c3ccc(Br)cc3)cc2[N+](=O)[O-])CC1`, the cell number change is 3.7%. For the same molecule, the AC50 under setting [1] is 2.91 µM [falling, single point]. Consider `COc1cccc(NC(=O)N2CCC(NC(=O)C3CCCCC3)CC2)c1`, for which the cell number change was 10.1%. Also, the AC50 under setting [1] is 0.00411 µM [falling, full curve, poor fit]. As for `CCn1c(C)c(C)c2cc(C(=O)NCCCN3CCCCC3C)ccc21` (stereo not given), the cell number change was -5.13%. Also, the half-maximal activity concentration (AC50) under setting [1] is 25.9 µM [rising, single point]. With `COc1ccc(CNC(=O)CS(=O)Cc2nc(-c3ccc(OC)c(OC)c3)oc2C)cc1` (stereo not given), the AC50 under setting [1] was 0.58 µM [rising, single point]. On to `COc1ccc2ccn(S(=O)(=O)c3ccccc3)c2c1`, for which the cell number change was found to be 16.7%. Turning to `COc1cccc(NC(=O)COc2nc3ccccc3nc2C)c1`, the cell number change was 31.5%. The AC50 under setting [2] is 0.291 µM [rising, full curve, poor fit]. Also, the AC50 under setting [1] is 0.103 µM [rising, full curve]. As for `O=C1/C(=C/c2ccccn2)SC(=S)N1c1cccc(O)c1`, the cell number change was -23.6%. Besides, the AC50 under setting [1] is 2.59 µM [falling, partial curve].

In the case of `Cc1ccc(NC(=O)CN2CCN(CCN=CC3=C(O)CC(C)(C)CC3=O)CC2)cc1`, the cell number change was found to be 103%. The AC50 under setting [2] was 18.4 µM [rising, partial curve]. For the same molecule, the AC50 under setting [1] was 0.231 µM [falling, single point]. In the case of `CCCCNS(=O)(=O)c1ccc2nc(SCC(=O)c3ccccc3OC)[nH]c2c1`, the cell number change amounted to 2.62%. The AC50 under setting [2] was 0.00517 µM [rising, full curve, poor fit]. The AC50 under setting [1] was 23.1 µM [falling, single point]. Regarding `Cc1noc(C)c1COc1ccccc1C(=O)N1CCN(S(=O)(=O)c2ccccc2C(F)(F)F)CC1`, the cell number change came out at 45.9%. Also, under setting [2], the AC50 is 23.1 µM [rising, single point]. As for `CCC(C)NCCOc1ccc(C(C)(C)c2ccccc2)cc1` (stereo not given), the cell number change is -37.4%. Also, the AC50 under setting [2] is 16.4 µM [falling, single point]. Moreover, the half-maximal activity concentration (AC50) under setting [1] was 20.6 µM [falling, single point].

In the case of `O=c1c2c(nc3cc(-c4ccccc4Cl)[nH]n13)CCS2`, the cell number change is -6.6%.

For the molecule `COc1cc(OC)c(C(=O)OCC(=O)Nc2c(C)n(C)n(-c3ccccc3)c2=O)cc1OC`, the cell number change is -17.5%. Besides, the AC50 under setting [1] is 0.00461 µM [falling, full curve, poor fit].

(Values after PubChem BioAssay AID2685 (National Center for Advancing Translational Sciences (NCATS), 2010).)
